Results published in PubChem BioAssay AID1347423 (Functional Genomics Laboratory (NCATS/FGL), 2020).
Among all 52,000 sequences or so, about 210 (0.4%) were called active.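 Rule for the calls: active = gene whose silencing raises cell survival under the drug, median off-target-corrected z-score across its silencing RNAs 2 or more; inactive = the rest.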 The list shows a part of the results.

Assay: Resistance to Poly (ADP-Ribose) Polymerase inhibitor: Gene Identification via Genome-wide siRNA Screen
Conditions: mouse BRCA2 R2336H ES cells, olaparib, CellTiter-Glo viability; active compounds read high
Outline: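 Genome-wide siRNA screen (3 siRNAs/gene, 20 nM) in mouse ES cells carrying hypomorphic BRCA2 R2336H; olaparib 500 nM added 48 h post-transfection, CellTiter-Glo viability 72 h later. Normalized to plate-median negative control; MAD z-scores, gene median, seed-adjusted.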

Sequence	z-score
CCAGAUGACAAUGAGUCAGTT against Ss18	inactive: 0.355
GGAAGUGCCCAUGAAUCCUTT against Irf6	inactive: 0.826
GGGUGUGCAUCUUGUUUUCTT against Olfr1312	inactive: 0.277
GGAAUUAAAGAGGAACUCCTT against Adamts20	inactive: 0.87
GGCCUUUACAUGUCCCAGCTT against BC002059	inactive: 0.867
GGGACAAAGCUUGUGAUCGTT against Edg7	inactive: -1.76
GGAGAAAUGGGUAAAAACUTT against BC034902	inactive: 0.104
GCUAACUGCCUUGGGAAGATT against Lyl1	inactive: -0.449
GGUGUGCUGAAAUUUCAAATT against E430004N04Rik	inactive: 0.884
GGCUGACACAAGAUGGCUGTT against Ebpl	inactive: -1.42
GGGAAGCUGACAAUGGAACTT against Nmb	inactive: 0.201
GGUGUCCAUGAAAGAGCUCTT against Dlk1	inactive: 0.773
GGAGCUCAUAGACCAGCUUTT against Apba2bp	inactive: -2.02
GCUCCCAGAUGUGAAACAATT against Taf7l	inactive: -1.19
GGAUUACGGUCACUGCCAUTT against Gabrr2	inactive: 1.39
GGGAUUGAAAAGGUUAACCTT against 4930563D23Rik	inactive: 0.828
GGAGAGCUGUGUUUGUAACTT against Mllt1	inactive: 1.77
GGCUUAUGAUUUCUGAAAATT against Malt1	inactive: 0.345
GGAACUGGAACACAUGGUUTT against Hars2	inactive: -0.944
GGCGGUUUCAAAAGCUUCCTT against Dusp2	inactive: -0.62
GGGAUGACUCGAGAUGAUGTT against Hs1bp1	inactive: -0.306
GGGAAAUGAACCUCUCUGATT against 3110049J23Rik	inactive: -1.88
CCGAGAGGUUUAAGGUCUCTT against Nsg1	inactive: -0.861
GCCUGAUGGACCAUGUUUATT against C80638	inactive: -0.642
GGAAGUGUGCCUAUUUGUGTT against Nte	inactive: -0.364
GCCCAGACUACCAUGCUUATT against LOC433481	inactive: 0.614

Sequence	z-score
GCAAUUACCAGUAUGCUACTT against Tbx19	inactive: 0.857
GGUUCUUGGUUUACAUAAGTT against Slc39a12	inactive: -2.03
GGUAGAUAACCUGAUUUAUTT against Slc7a6	inactive: 0.444
GGAAUUACUGGCCUGGGUATT against Nox3	inactive: -0.756
GCAACAGUUGGUCUAAAAUTT against Psma1	inactive: 1.51
GGACAACAUACGAUAUUCATT against 1700052H20Rik	inactive: -1.46
GGAGCUGUCUAAUCAUAAUTT against Clasp2	inactive: -0.614
GGAGUUACGUAGAACUACCTT against Adam25	inactive: 0.0384
GGAGUUGAAAGGAGUGAGCTT against Igsf4c	inactive: 0.353
GGUAGCAGAGCAGCUUAUUTT against Vmd2l1	inactive: -0.75
UUAUUCUCACUGGUUUGUATT against Olfr746	inactive: 0.621
CCAGUUUGAUGGUAGACAATT against T2bp	inactive: 0.665
GCUCGAUCCCUCUUUCAUCTT against Mpst	inactive: -0.607
CCCUAGAAUUGCUACAGUCTT against Tcea1	inactive: 0.489
GGCUCAGCUAGAGGUUUCUTT against Ugt1a13	inactive: -1.23
GGGAGUAUUACCUCCUUCATT against Igbp1b	inactive: -1.37
GGUACUUUACACUGAACAATT against Serpinb13	inactive: 0.739
GCUAAAAGGCUACGGGAGUTT against Bhlhb4	inactive: -1.15
GGAAAAUCCAGAGGUACGUTT against Kcnj6	inactive: 2.35
GGGUGGAGUAUUUUUCUUGTT against Ube2d2	inactive: -0.345
GCUUGUCUACUUCCUAGAUTT against Rnpep	inactive: 0.623
CUCCUUGUCUACCUGAAUATT against V1rh6	inactive: 0.542
GGAAAGUGCCCUCCACACUTT against Lgi4	inactive: -0.415
GGACUAUUAGAUUCCAGCATT against Wnt6	inactive: -1.83
GGAAAAGGAGAUAUCCAGCTT against Bag5	inactive: -0.0381
CGAGUCAAAAUCGAAUGAUTT against BC020002	inactive: -0.955

25 neighbouring entries out of the list so far:
Sequence	z-score
GGGAUGACUCGAGAUGAUGTT against Hs1bp1	inactive: -0.306
GGGAAAUGAACCUCUCUGATT against 3110049J23Rik	inactive: -1.88
CCGAGAGGUUUAAGGUCUCTT against Nsg1	inactive: -0.861
GCCUGAUGGACCAUGUUUATT against C80638	inactive: -0.642
GGAAGUGUGCCUAUUUGUGTT against Nte	inactive: -0.364
GCCCAGACUACCAUGCUUATT against LOC433481	inactive: 0.614
GCAAUUACCAGUAUGCUACTT against Tbx19	inactive: 0.857
GGUUCUUGGUUUACAUAAGTT against Slc39a12	inactive: -2.03
GGUAGAUAACCUGAUUUAUTT against Slc7a6	inactive: 0.444
GGAAUUACUGGCCUGGGUATT against Nox3	inactive: -0.756
GCAACAGUUGGUCUAAAAUTT against Psma1	inactive: 1.51
GGACAACAUACGAUAUUCATT against 1700052H20Rik	inactive: -1.46
GGAGCUGUCUAAUCAUAAUTT against Clasp2	inactive: -0.614
GGAGUUACGUAGAACUACCTT against Adam25	inactive: 0.0384
GGAGUUGAAAGGAGUGAGCTT against Igsf4c	inactive: 0.353
GGUAGCAGAGCAGCUUAUUTT against Vmd2l1	inactive: -0.75
UUAUUCUCACUGGUUUGUATT against Olfr746	inactive: 0.621
CCAGUUUGAUGGUAGACAATT against T2bp	inactive: 0.665
GCUCGAUCCCUCUUUCAUCTT against Mpst	inactive: -0.607
CCCUAGAAUUGCUACAGUCTT against Tcea1	inactive: 0.489
GGCUCAGCUAGAGGUUUCUTT against Ugt1a13	inactive: -1.23
GGGAGUAUUACCUCCUUCATT against Igbp1b	inactive: -1.37
GGUACUUUACACUGAACAATT against Serpinb13	inactive: 0.739
GCUAAAAGGCUACGGGAGUTT against Bhlhb4	inactive: -1.15
GGAAAAUCCAGAGGUACGUTT against Kcnj6	inactive: 2.35

Next part:

Sequence	z-score
GCAGUUCGUAGUAUUUGAATT against B4galt1	inactive: -0.331
GCUACUCUACUGAACAGAATT against Olfr472	inactive: 1.71
GGGACUUGAUCUCCUGAGUTT against 1110033F04Rik	inactive: 0.344
GGCUUAAUUGCUAGCCAAGTT against Slc7a13	inactive: -0.212
CCUUCUGUUAGCCAAUAUATT against Tnmd	inactive: -1.64
GGGCUUCUUUGACCUCAUCTT against Kdelr1	inactive: 0.491
GGUGUUGGUUGAGAACUUCTT against Tbxas1	inactive: -0.727
GGUUCUCAGAGCUUGUAGATT against 6720455I24Rik	inactive: 0.819
CCAGAUCAGCAAUAUCAAATT against Lasp1	inactive: 1.36
GGCUACGCAAACAGUUUGGTT against Actn1	inactive: 0.793
GGUGACAACUGACCUCAACTT against Oog4	inactive: 0.0857
GGACAUUCUCAAAUCUUGATT against DXImx39e	inactive: -0.706
GGUGUUCCAUAUUCUGGACTT against Pvalb	inactive: 0.717
GGGCUCCUGGUUUAGUAAUTT against Zfp59	inactive: 0.241
GGAUGGCUACCGAAAAAAUTT against Eif3s8	inactive: -2.11
GGAUCUCCUAAGUGUUCCCTT against AI415282	inactive: 0.269
CCACUUUUAGCUAGAAGGATT against Gdf2	inactive: -0.0563
GGUCCUGAAGAACCUGUACTT against Myrip	inactive: -0.582
GGCUUUCUCACAUAAGAGCTT against Zfp297	inactive: 0.779
GGACAUCAGUUAUCACGCATT against Sh3rf2	inactive: 0.713
GGGAGUGUUAAAGAGAGUGTT against A330049M08Rik	inactive: -0.841
GCAGCCAUACAGCUUAUAUTT against Cyb561d2	inactive: -2.21
GGAACCAUCUUCAACCAACTT against 6820428D13	inactive: 0.24
GGCAGAAACGUGGACUAAATT against Mmp12	inactive: 1.76
GGGACUUACAGAUUACAGUTT against Izumo1	inactive: 0.281
GGGAGGAACAAGUUGGACCTT against Npl	inactive: -0.627

Sequence	z-score
GGGUCAAAUCUGACUGCAUTT against Tieg1	inactive: 0.199
CGUAGAAACAGUGCAGCAGTT against C730048E16Rik	inactive: 2.37
GGUCUUACGUAAACCUGCCTT against Olfr959	inactive: -0.307
GCGGUAUGAGAAGGUUCCATT against 5830461H18Rik	inactive: 0.101
CGGUGGUCACUGUGAAAUGTT against Nr1h5	inactive: -0.0299
GGAAGAUGACAACUUAUCUTT against D930031B21Rik	inactive: -0.851
GCCUUUUAGGACAGACUCUTT against AU040320	inactive: -1.66
CCUUGGACCCGAUGUUCUUTT against Slc22a12	inactive: -0.535
GCUGCUCAAACAUAAUGAATT against Osbpl2	inactive: 0.508
GGAAGGCUAUACACACCUUTT against Crisp1	inactive: 1.26
GGAGAAAUUCAAACAAGUATT against 4930503B20Rik	inactive: 0.433
GGAUUUACCAAGUCUAUUGTT against C130022K22Rik	inactive: -0.274
GGUGUGUUUUGUAUUGAUUTT against Olfr843	inactive: -0.196
GGCAGGAUCUUUACAUCUCTT against 4733401H21Rik	inactive: 0.396
GCAUACAACUGUUCAUAGATT against AI851076	inactive: 0.249
GGGUGUGUGCUAAUGAACUTT against Tcf2	inactive: 2.14
GGCUCAAGUUUGCCAGGAATT against Kcnq2	inactive: -2.98
CCUGUCUCCAAUUUUCCUGTT against Olfr1254	inactive: 0.507
GCUCAUUCGAGAGGAGAACTT against Nurit	inactive: -1.59
GGUAUUAGCAAUUUUCUGGTT against Olfr619	inactive: -0.669
GCCCAUAUCGGAGAAGAUUTT against Cap2	inactive: -1.05
GCUUCUAAGCUUUAGAGGGTT against 4632411J06Rik	inactive: -0.131
GCACGAAAUCAGCAAUGAATT against Ever2	inactive: -1.94
CUCGUUAAUCCUGUGAUAUTT against Olfr740	inactive: 0.187
GCCAACCUCUGUGUGUAUUTT against Olfr1263	inactive: 0.0351
GGUUCACCUACCCAACAAUTT against Mrgpra4	inactive: 1.33
